Data source: PubChem BioAssay AID1508597 (Cure First, 2020)
Shown is a random part of the about 2,100 reagents, under one of the conditions tested. 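Calls flag viability under 80% in either arm, not effects specific to rucaparib; the reference for percent is not stated.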 Some reagents were tested in more than one well and are listed for each. Not stated in the record: the 100% reference.

Aim: 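Knock-downs altering ovarian cancer cell survival with or without PARP inhibitor rucaparib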 (primary screen)
Cells: human ovarian carcinoma lines grown from tumours: OCI-P5x (papillary serous) and OCI-C5x (clear cell)
Reagent: siRNA pool against human genes, 1.25 pmol siRNA per well
Timing: 72 h or 96 h, depending on the cell culture
Treatment: rucaparib 20 µM (about IC30) or vehicle, present until read-out
Rucaparib or vehicle: Vehicle
Cell line: OCI-C5x (clear cell)
Measured: 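ATP luminescence measured at 72 or 96 h according to the culture, then normalised and expressed as percent viability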
Reading the numbers: viability, normalised: higher = more viable cells remaining
Active means: 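Active when normalised viability falls below 80 percent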
Meaning of the calls: active = viability under 80%; inactive = viability 80% or more

USP28, technical replicate 1 → viability, normalised (%): 71.6; call: active
USP28, technical replicate 2 → viability, normalised (%): 56.6; call: active
USP28, technical replicate 3 → viability, normalised (%): 53.5; call: active
ZKSCAN2, technical replicate 1 → viability, normalised (%): 65.6; call: active
ZKSCAN2, technical replicate 2 → viability, normalised (%): 48.3; call: active
ZKSCAN2, technical replicate 3 → viability, normalised (%): 63.5; call: active
MUS81, technical replicate 1 → viability, normalised (%): 49.7; call: active
MUS81, technical replicate 2 → viability, normalised (%): 59.4; call: active
MUS81, technical replicate 3 → viability, normalised (%): 47.5; call: active
PSMC2, technical replicate 1 → viability, normalised (%): 33.7; call: active
PSMC2, technical replicate 2 → viability, normalised (%): 29.1; call: active
PSMC2, technical replicate 3 → viability, normalised (%): 24.7; call: active
PSKH2, technical replicate 1 → viability, normalised (%): 58.8; call: active
PSKH2, technical replicate 2 → viability, normalised (%): 57.3; call: active
PSKH2, technical replicate 3 → viability, normalised (%): 63.3; call: active
TPP1, technical replicate 1 → viability, normalised (%): 49; call: active
TPP1, technical replicate 2 → viability, normalised (%): 57.8; call: active
TPP1, technical replicate 3 → viability, normalised (%): 50.8; call: active

Continued (4 carried over from the part before).
PSKH2, technical replicate 3 → viability, normalised (%): 63.3; call: active
TPP1, technical replicate 1 → viability, normalised (%): 49; call: active
TPP1, technical replicate 2 → viability, normalised (%): 57.8; call: active
TPP1, technical replicate 3 → viability, normalised (%): 50.8; call: active
RAG1, technical replicate 1 → viability, normalised (%): 32.8; call: active
RAG1, technical replicate 2 → viability, normalised (%): 28.1; call: active
RAG1, technical replicate 3 → viability, normalised (%): 45.2; call: active
LHCGR, technical replicate 1 → viability, normalised (%): 48.7; call: active
LHCGR, technical replicate 2 → viability, normalised (%): 56.6; call: active
LHCGR, technical replicate 3 → viability, normalised (%): 51.9; call: active
DPF2, technical replicate 1 → viability, normalised (%): 40.3; call: active
DPF2, technical replicate 2 → viability, normalised (%): 48.4; call: active
DPF2, technical replicate 3 → viability, normalised (%): 42.1; call: active
SIRT1, technical replicate 1 → viability, normalised (%): 23.8; call: active
SIRT1, technical replicate 1 → viability, normalised (%): 69.5; call: active
SIRT1, technical replicate 2 → viability, normalised (%): 36; call: active
SIRT1, technical replicate 2 → viability, normalised (%): 84.9; call: inactive
SIRT1, technical replicate 3 → viability, normalised (%): 35.7; call: active
SIRT1, technical replicate 3 → viability, normalised (%): 94.3; call: inactive
